PubChem BioAssay AID1053208 | Peter MacCallum Cancer Centre, 2014

Test: 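Genes whose silencing cuts survival of bone tumour cells only with doxorubicin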 (primary screen)
Cell system: mouse osteosarcoma cells, early-passage culture from an engineered mouse model of fibroblastic bone tumour
Reagent: siRNA pool against mouse genes, 40 nM
Duration: about 120 h (48 h before drug, then 72 h with drug)
Challenge: doxorubicin 100 nM for 72 h, roughly 30-40% inhibitory dose
Measured: 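Viability read as ATP luminescence after 72 h of 100 nM doxorubicin or none, duplicate wells averaged, scaled to non-targeting siRNA, then expressed as robust z-scores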
Reading the numbers: viability z-score with doxorubicin: higher = more viable cells under doxorubicin; viability z-score without drug: higher = more viable cells with knock-down alone
Active means: 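Called active if knock-down leaves viability unchanged without drug (z within -2 to 2) but lowers it with doxorubicin (z at or under -2)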
In all, the deposit lists about 17,000 reagents; below is a part drawn at random. 788 of them (4.7%) count as active. 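Calls rest on z-score classes alone; an extra cut-off of viability at most 70% of control was not applied to them.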 Not all columns of the deposit are shown.

Gene | combined z-score class | viability z-score with doxorubicin | viability z-score without drug | Call
Asl | no change with or without drug | -0.56 | -0.84 | inactive
Abhd14b | no change with or without drug | -0.67 | 0.51 | inactive
Zfp451 | no change with or without drug | -0.9 | 1.01 | inactive
Adora2b | no change with or without drug | -1.57 | -0.84 | inactive
Camk1 | no change with or without drug | -0.67 | 0.17 | inactive
Luc7l | no change with or without drug | 0.22 | 0.17 | inactive
Irag1 | no change with or without drug | 0.9 | -1.35 | inactive
Zbtb17 | no change with or without drug | 0 | 0.51 | inactive
Acsm4 | no change with or without drug | 0.34 | 0.84 | inactive
Ca5b | no change with or without drug | -0.45 | -1.18 | inactive
Hivep3 | high cell count without drug only | 1.69 | 2.19 | inactive
Oaz3 | no change with or without drug | 1.35 | 0.34 | inactive
Il1a | no change with or without drug | 0.67 | -0.34 | inactive
Gdf5 | no change with or without drug | -1.12 | -0.51 | inactive
Serpinb9c | no change with or without drug | 0.79 | 0.84 | inactive
Atp6v1a | no change with or without drug | 0.45 | 0 | inactive
Clip2 | no change with or without drug | 0.56 | 0.51 | inactive
Prss16 | no change with or without drug | 0.34 | 0.34 | inactive
Or5l13 | no change with or without drug | -0.45 | 0.51 | inactive
Epha6 | no change with or without drug | 0.9 | 0.67 | inactive
Syt3 | no change with or without drug | 0.45 | -1.85 | inactive
Cdca8 | low cell count without drug only | -1.46 | -2.36 | inactive

Laid out differently: results already given.
{"Gene": "Prss16", "combined z-score class": "no change with or without drug", "viability z-score with doxorubicin": 0.34, "viability z-score without drug": 0.34, "Call": "inactive"}
{"Gene": "Or5l13", "combined z-score class": "no change with or without drug", "viability z-score with doxorubicin": -0.45, "viability z-score without drug": 0.51, "Call": "inactive"}

Continued.
Gene | combined z-score class | viability z-score with doxorubicin | viability z-score without drug | Call
Smap1 | no change with or without drug | -0.67 | -0.51 | inactive
Irf2 | no change with or without drug | 0.45 | -0.34 | inactive
Mier2 | no change with or without drug | -0.22 | 0.17 | inactive
Chd2 | no change with or without drug | -0.9 | -0.34 | inactive
Dpep3 | no change with or without drug | 0.9 | -0.17 | inactive
Tob2 | no change with or without drug | -0.56 | 0.17 | inactive
Pycard | no change with or without drug | -0.67 | -1.18 | inactive
Pcif1 | no change with or without drug | 1.57 | 0.84 | inactive
Ttc12 | no change with or without drug | -0.9 | 0.34 | inactive
Spata4 | no change with or without drug | 0.45 | -0.67 | inactive
Habp2 | no change with or without drug | 0.22 | -0.34 | inactive
Slc7a6 | no change with or without drug | 0 | 1.52 | inactive
